Reference: the supplement of paper PMC8166895
Counter-ions that a name gives are not always drawn. The list shows a part of the results. Most entries show no effect beyond the scatter of the controls.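 Differential scanning fluorimetry gave melting temperatures in a one-replicate pilot screen of a library of approved drugs plus clinical or known-target compounds. Hits increasing melting point at least 2 °C were the strongest stabilizers, while negative shifts signify destabilization.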

These compounds were tested on SARS-CoV-2 main protease (Mpro, nsp5) (assay: thermal shift ΔTm of Mpro relative to plate average Tm; higher = stronger thermal stabilization of Mpro (binding)). Settings: 10 µM; protein concentration 1 µM.

Row | Compound | thermal shift ΔTm of Mpro [°C]
1 | O=C(NCCS(=O)(=O)c1ccc(C(F)(F)F)cn1)c1ccc(Cl)cc1 | -0.18
2 | CN1CC[C@H](c2c(O)cc(O)c3c(=O)cc(-c4ccccc4Cl)oc23)[C@H](O)C1 [Flavopiridol HCl] | -0.0734
3 | CN1CC[C@H](c2c(O)cc(O)c3c(=O)cc(-c4ccccc4Cl)oc23)[C@H](O)C1 [Flavopiridol (Alvocidib)] | 0.0861
4 | COc1cc(S(=O)(=O)O)ccc1O [Sulfogaiacol] | 0.258
5 | COc1ccc(-c2cc(=O)c3c(O)cc(O)cc3o2)cc1O [Diosmetin] | 0.36
6 | Nc1nc(Cl)nc2c1ncn2[C@@H]1O[C@H](CO)[C@@H](O)[C@@H]1F [Clofarabine] | 0.255
7 | CC(C)C(=O)OCC(=O)[C@@]12O[C@H](C3CCCCC3)O[C@@H]1C[C@H]1[C@@H]3CCC4=CC(=O)C=C[C@]4(C)[C@H]3[C@@H](O)C[C@@]12C [Ciclesonide] | -0.386
8 | CCCCCCCCCCCCCCOc1ccc(C(=O)O)o1 | -1.25
9 | Cc1ccc(Nc2nnc(Cc3ccncc3)c3ccccc23)cc1Br | -0.108
10 | O=C1CN2Cc3c(ccc(Cl)c3Cl)N=C2N1 [Anagrelide] | 0.0366
11 | O=C1CN2Cc3c(ccc(Cl)c3Cl)N=C2N1 [Anagrelide HCl] | 0.162
12 | CC(C)[C@H](N)C(=O)N1CCC[C@H]1B(O)O [Talabostat mesylate] | 0.137
13 | COCCN1CCN(Cc2ccc(-c3n[nH]c4c3C(=O)c3c(NC(=O)NN5CCOCC5)cccc3-4)cc2)CC1 | 0.188
14 | COC(=O)C1=CCCN(C)C1 [Arecoline] | 0.00899
15 | CN(C)Cc1c(C(=O)NCCOc2ccc(C(=O)NO)cc2)oc2ccccc12 | 0.211
16 | CC(C)NCC(O)COc1ccc(COCCOC(C)C)cc1 (stereo not drawn) [Bisoprolol fumarate] | 0.247
17 | NCCCNc1ccc(Nc2nccc(Nc3cc(C4CC4)[nH]n3)n2)cc1 | 0.205
18 | CNCC(=O)c1ccc(O)c(O)c1 [Adrenalone HCl] | -0.204
19 | Oc1cccc(Nc2ncc(F)c(Nc3cccc(O)c3)n2)c1 [(E)-Elafibranor] | 0.275

3 entries from above, with tabs:
Row	Compound	thermal shift ΔTm of Mpro [°C]
5	COc1ccc(-c2cc(=O)c3c(O)cc(O)cc3o2)cc1O [Diosmetin]	0.36
11	O=C1CN2Cc3c(ccc(Cl)c3Cl)N=C2N1 [Anagrelide HCl]	0.162
13	COCCN1CCN(Cc2ccc(-c3n[nH]c4c3C(=O)c3c(NC(=O)NN5CCOCC5)cccc3-4)cc2)CC1	0.188

Additional entries:

Row | Compound | thermal shift ΔTm of Mpro [°C]
20 | O=c1cc(-c2ccc(O)cc2)oc2cc(O)cc(O)c12 [Apigenin] | 0.264
21 | CCN(CC)C(=O)[C@@]1(c2ccccc2)C[C@H]1CN [Levomilnacipran] | 0.379
22 | COc1ccc(S(=O)(=O)N(CCO)c2ccccc2CN(C)CC=Cc2ccc(Cl)cc2)cc1 | -0.0785
23 | C[C@@H](N)[C@H]1CC[C@H](C(=O)Nc2ccncc2)CC1 | 0.14
24 | NNC(=O)c1ccccn1 [2-Picolinyl hydrazide] | 0.203
25 | c1cnc2cc3c(cc2n1)[C@@H]1CNC[C@H]3C1 [Varenicline] | -0.0678
26 | c1cnc2cc3c(cc2n1)[C@@H]1CNC[C@H]3C1 [Varenicline Tartrate] | -0.0409
27 | CC(=O)OCC(COC(C)=O)OC(C)=O [Triacetin] | -0.00728
28 | Fc1ccc2c(/C=C/c3nn[nH]n3)c[nH]c2c1 | 0.117
29 | CC(=O)N[C@H]1CSSC[C@@H](C(N)=O)NC(=O)[C@H](C(C)C)NC(=O)[C@H](C)NC(=O)[C@H](Cc2c[nH]cn2)NC1=O [Exherin] | 0.104
30 | O=C(CCCCCCNC(=O)c1cnc(N(c2ccccc2)c2ccccc2)nc1)NO [Rocilinostat (ACY-1215)] | -0.222
31 | O=c1ncccn1[C@@H]1O[C@H](CO)[C@@H](O)[C@H]1O [Zebularine] | 0.0563
32 | CC(C)N(CCNC(=O)CN1CCCC1=O)C(C)C [Pramiracetam] | -0.0349
33 | COc1cccc(CNC(=O)Nc2nc(-c3ccncc3)cs2)c1 | -0.00201
34 | NC(CO)(CO)CO [Trometamol] | -0.0655
35 | C=CCCCCCCCCC(=O)O[C@H]1CC[C@H]2[C@@H]3CCC4=CC(=O)C=C[C@]4(C)[C@H]3CC[C@]12C [Parenabol] | -0.359
36 | C=CC(=O)N1CCN(C(=O)CNc2cc(I)c(Cl)cc2O)CC1 [K-Ras(G12C) inhibitor 12] | -0.243
37 | CO[C@@H]1[C@@H](O[C@@H]2O[C@H](C)[C@@H](O[C@H]3C[C@@](C)(O)[C@@H](O)[C@H](C)O3)[C@H](N(C)C)[C@H]2O)[C@@H](CC=O)C[C@@H](C)[C@@H](O[C@H]2CC[C@H](N(C)C)[C@@H](C)O2)/C=C/C=C/C[C@@H](C)OC(=O)C[C@H]1OC(C)=O [Acetylspiramycin] | 0.197
38 | Clc1ccc(C(Cn2ccnc2)OCc2c(Cl)cccc2Cl)c(Cl)c1 (stereo not drawn) [Isoconazole nitrate] | -0.178
